Source: publication PMC3798263
These are yes or no findings as the source states them, for the method shown. Binding seen in cells or lysates may run through a third protein. These calls come from enrichment with a bait or labelling near it, and not all partners need be listed. Sequences can lack the tags named with a protein.

Molecular target: T1, HOS5-FLAG from transgenic Arabidopsis lines (Arabidopsis) (UniProt Q8W4B1)
T1 sequence: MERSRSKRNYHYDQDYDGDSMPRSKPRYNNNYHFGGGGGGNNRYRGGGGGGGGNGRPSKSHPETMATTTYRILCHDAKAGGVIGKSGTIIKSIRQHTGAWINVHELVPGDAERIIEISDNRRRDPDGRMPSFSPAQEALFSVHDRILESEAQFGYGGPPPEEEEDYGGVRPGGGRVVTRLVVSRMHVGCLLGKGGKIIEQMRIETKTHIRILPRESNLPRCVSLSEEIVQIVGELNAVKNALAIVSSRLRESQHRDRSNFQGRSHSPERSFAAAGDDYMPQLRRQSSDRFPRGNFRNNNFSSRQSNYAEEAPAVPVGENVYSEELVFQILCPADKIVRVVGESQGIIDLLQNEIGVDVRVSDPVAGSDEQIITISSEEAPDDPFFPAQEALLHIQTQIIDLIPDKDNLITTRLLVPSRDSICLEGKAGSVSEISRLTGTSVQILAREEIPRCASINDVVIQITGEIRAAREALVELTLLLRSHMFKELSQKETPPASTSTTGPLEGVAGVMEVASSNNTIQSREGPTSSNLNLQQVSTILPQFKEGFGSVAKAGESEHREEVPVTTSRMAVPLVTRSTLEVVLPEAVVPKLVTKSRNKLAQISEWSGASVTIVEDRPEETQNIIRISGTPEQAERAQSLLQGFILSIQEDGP
Assay: affinity purification with mass spectrometry; protein extracts of HOS5-FLAG-tagged Arabidopsis lines (Col-0 as control), anti-FLAG M2 beads, lysis buffer with 100 mM KCl, 10 mM HEPES, 0.1% NP-40; elution with 3x FLAG peptide, trypsin digestion, mass spectrometry

binding: binds
B1: RS41, endogenous in Arabidopsis (protein, UniProt P92966 1-356)
chain: MKPVFCGNFEYDARESDLERLFRKYGKVERVDMKAGFAFVYMEDERDAEDAIRALDRFEYGRTGRRLRVEWTKNDRGGAGRSGGSRRSSSGLRPSKTLFVINFDAQNTRTRDLERHFEPYGKIVNVRIRRNFAFIQYEAQEDATRALDATNSSKLMDKVISVEYAVKDDDSRGNGYSPERRRDRSPDRRRRSPSPYRRERGSPDYGRGASPVAHKRERTSPDYGRGRRSPSPYKRARLSPDYKRDDRRRERVASPENGAVRNRSPRKGRGESRSPPPYEKRRESRSPPPYEKRRESRSPPPYEKRRERSRSRSKSSPENGQVESPGQIMEVEAGRGYDGADSPIRESPSRSPPAEE
